Data: the supplement of paper PMC10849652
This is one part of the list.

Amino acid sequences for entries named in this document (tags omitted). A change or cut given only in a name is not applied to a line headed by its entry.
UniProt Q14694, whole entry, looked up: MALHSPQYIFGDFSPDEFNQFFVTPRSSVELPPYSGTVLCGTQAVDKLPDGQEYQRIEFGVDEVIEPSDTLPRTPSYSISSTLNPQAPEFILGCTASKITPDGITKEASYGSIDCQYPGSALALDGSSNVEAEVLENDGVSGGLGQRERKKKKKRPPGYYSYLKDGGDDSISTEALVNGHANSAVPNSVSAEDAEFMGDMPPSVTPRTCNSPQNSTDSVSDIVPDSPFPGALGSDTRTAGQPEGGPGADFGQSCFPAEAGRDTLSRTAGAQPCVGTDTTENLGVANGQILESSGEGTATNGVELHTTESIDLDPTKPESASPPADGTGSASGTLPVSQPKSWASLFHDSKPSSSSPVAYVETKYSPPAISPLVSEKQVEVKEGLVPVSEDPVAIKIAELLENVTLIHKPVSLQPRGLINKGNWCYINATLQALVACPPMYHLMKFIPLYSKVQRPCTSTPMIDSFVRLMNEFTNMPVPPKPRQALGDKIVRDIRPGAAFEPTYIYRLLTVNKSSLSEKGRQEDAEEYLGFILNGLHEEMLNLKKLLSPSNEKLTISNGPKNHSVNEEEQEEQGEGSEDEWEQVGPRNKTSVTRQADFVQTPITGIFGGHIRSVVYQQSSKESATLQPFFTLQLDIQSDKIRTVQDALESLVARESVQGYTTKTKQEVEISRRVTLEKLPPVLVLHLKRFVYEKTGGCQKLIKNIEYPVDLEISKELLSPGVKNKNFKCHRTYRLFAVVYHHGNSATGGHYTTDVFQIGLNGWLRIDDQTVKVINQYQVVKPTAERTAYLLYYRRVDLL
UniProt P07919: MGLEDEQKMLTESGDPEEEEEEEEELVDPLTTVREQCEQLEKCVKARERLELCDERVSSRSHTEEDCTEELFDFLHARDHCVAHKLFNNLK
UniProt Q9NWZ5: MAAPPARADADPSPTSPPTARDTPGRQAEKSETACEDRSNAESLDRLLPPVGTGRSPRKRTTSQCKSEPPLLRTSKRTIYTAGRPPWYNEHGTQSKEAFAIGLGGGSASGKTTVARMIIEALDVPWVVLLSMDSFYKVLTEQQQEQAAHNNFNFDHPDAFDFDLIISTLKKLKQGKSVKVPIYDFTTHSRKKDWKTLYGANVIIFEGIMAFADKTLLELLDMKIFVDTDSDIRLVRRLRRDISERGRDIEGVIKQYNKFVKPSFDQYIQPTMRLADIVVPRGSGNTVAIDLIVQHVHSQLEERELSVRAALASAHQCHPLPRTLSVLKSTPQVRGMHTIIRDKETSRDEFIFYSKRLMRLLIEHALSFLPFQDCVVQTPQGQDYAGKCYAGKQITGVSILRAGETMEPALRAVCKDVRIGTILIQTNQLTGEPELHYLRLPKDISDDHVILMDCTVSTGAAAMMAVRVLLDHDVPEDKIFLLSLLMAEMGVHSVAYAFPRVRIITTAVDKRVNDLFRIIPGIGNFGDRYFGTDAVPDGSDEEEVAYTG
UniProt Q15853: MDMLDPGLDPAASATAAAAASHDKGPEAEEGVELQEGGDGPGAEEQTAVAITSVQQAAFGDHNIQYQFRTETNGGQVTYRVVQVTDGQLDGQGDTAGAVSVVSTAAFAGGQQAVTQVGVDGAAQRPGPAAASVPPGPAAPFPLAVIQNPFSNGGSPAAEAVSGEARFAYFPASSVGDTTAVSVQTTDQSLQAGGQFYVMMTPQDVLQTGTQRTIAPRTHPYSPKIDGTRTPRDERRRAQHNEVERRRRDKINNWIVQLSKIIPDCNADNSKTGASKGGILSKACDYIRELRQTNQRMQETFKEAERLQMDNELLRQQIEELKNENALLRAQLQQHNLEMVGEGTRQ
UniProt P18206: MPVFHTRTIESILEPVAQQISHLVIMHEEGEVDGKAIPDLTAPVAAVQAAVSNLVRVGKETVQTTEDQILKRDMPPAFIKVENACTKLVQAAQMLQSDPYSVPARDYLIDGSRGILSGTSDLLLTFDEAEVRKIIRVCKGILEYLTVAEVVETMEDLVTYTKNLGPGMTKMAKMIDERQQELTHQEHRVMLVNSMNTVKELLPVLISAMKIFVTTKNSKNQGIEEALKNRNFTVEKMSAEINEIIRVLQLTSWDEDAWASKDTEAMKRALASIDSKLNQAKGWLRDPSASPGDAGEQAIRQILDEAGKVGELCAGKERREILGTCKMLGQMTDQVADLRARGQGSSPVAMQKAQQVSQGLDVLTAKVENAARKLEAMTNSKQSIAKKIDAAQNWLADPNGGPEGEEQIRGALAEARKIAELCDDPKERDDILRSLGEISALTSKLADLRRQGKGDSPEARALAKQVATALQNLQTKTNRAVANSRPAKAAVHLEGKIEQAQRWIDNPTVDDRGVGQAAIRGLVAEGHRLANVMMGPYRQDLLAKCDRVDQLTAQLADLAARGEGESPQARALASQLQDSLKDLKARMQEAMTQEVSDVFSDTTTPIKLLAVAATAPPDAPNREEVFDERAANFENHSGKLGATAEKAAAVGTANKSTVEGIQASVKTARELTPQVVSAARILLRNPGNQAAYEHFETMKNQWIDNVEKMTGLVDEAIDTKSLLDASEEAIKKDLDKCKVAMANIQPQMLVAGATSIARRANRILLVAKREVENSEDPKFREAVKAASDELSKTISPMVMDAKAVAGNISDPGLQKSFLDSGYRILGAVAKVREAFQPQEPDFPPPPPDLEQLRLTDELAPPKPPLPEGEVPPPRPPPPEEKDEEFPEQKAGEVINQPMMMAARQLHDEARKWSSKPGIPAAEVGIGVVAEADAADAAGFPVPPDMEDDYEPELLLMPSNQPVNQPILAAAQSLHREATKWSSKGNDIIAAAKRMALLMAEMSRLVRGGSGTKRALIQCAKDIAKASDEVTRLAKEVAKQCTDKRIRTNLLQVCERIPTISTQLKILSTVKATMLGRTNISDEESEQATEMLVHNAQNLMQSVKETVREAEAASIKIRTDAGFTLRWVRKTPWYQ
UniProt Q9BZX2: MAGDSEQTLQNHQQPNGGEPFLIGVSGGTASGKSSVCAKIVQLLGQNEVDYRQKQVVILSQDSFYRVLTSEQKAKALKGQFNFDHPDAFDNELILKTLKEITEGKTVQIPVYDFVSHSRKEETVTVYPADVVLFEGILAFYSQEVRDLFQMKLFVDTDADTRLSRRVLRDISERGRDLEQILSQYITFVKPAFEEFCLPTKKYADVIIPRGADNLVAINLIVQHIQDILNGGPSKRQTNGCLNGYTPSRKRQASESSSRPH
UniProt Q04323: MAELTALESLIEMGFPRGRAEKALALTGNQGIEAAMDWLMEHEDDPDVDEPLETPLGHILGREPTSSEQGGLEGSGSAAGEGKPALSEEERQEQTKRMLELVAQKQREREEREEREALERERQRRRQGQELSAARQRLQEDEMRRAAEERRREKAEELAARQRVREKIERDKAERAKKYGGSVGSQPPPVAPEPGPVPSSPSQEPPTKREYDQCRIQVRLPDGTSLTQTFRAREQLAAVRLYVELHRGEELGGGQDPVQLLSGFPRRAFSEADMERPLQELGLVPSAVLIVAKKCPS
UniProt Q9Y5K5, whole entry, looked up: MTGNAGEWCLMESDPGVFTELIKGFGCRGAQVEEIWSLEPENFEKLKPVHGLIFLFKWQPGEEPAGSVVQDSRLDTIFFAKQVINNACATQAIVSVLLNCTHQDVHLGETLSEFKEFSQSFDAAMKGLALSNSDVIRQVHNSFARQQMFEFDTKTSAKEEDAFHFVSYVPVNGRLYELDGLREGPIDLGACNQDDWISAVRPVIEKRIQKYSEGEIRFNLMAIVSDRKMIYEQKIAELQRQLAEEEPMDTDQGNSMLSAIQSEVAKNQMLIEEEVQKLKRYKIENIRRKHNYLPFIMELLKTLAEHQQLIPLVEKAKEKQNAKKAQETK
UniProt Q96BW1: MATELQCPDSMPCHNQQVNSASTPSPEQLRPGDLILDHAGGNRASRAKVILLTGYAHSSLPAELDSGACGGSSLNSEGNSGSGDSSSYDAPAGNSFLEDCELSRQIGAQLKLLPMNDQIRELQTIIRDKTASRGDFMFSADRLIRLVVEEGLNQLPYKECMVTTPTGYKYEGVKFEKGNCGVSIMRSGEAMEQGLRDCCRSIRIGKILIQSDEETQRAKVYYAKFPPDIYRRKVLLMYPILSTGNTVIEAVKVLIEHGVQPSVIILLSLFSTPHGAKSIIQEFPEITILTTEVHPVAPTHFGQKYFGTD
UniProt Q16880: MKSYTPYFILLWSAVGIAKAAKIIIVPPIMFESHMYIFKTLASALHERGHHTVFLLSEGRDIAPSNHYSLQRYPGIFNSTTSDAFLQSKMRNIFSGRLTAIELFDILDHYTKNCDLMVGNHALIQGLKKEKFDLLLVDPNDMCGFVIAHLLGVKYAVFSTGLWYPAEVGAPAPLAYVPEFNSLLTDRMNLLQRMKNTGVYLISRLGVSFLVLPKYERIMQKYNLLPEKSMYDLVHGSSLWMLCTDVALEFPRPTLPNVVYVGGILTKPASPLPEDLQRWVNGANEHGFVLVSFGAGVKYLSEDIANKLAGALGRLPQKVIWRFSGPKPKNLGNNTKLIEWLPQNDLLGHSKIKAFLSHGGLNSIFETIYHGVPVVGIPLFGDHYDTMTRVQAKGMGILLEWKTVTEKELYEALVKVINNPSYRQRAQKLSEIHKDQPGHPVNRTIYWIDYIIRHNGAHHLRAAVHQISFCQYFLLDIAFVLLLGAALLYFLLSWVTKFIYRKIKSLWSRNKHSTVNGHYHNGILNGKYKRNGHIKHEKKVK
UniProt Q96RL1: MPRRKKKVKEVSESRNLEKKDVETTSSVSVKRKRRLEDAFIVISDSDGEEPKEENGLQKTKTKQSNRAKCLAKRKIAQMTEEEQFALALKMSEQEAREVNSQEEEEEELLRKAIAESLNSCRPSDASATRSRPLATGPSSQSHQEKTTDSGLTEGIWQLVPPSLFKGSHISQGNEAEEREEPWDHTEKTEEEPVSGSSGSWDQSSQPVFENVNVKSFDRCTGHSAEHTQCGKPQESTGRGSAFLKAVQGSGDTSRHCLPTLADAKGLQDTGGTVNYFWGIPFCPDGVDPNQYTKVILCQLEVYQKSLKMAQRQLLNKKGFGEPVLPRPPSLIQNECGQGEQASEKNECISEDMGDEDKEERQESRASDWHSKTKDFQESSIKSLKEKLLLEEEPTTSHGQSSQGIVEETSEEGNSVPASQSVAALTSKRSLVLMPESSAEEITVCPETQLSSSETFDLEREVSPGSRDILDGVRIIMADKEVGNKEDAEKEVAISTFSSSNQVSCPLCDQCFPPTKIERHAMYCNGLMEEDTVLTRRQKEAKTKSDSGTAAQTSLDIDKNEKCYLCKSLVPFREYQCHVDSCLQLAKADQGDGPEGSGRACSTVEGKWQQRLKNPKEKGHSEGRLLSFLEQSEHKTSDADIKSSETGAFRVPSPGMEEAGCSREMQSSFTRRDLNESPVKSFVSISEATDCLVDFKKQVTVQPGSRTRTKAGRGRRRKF
UniProt P40818: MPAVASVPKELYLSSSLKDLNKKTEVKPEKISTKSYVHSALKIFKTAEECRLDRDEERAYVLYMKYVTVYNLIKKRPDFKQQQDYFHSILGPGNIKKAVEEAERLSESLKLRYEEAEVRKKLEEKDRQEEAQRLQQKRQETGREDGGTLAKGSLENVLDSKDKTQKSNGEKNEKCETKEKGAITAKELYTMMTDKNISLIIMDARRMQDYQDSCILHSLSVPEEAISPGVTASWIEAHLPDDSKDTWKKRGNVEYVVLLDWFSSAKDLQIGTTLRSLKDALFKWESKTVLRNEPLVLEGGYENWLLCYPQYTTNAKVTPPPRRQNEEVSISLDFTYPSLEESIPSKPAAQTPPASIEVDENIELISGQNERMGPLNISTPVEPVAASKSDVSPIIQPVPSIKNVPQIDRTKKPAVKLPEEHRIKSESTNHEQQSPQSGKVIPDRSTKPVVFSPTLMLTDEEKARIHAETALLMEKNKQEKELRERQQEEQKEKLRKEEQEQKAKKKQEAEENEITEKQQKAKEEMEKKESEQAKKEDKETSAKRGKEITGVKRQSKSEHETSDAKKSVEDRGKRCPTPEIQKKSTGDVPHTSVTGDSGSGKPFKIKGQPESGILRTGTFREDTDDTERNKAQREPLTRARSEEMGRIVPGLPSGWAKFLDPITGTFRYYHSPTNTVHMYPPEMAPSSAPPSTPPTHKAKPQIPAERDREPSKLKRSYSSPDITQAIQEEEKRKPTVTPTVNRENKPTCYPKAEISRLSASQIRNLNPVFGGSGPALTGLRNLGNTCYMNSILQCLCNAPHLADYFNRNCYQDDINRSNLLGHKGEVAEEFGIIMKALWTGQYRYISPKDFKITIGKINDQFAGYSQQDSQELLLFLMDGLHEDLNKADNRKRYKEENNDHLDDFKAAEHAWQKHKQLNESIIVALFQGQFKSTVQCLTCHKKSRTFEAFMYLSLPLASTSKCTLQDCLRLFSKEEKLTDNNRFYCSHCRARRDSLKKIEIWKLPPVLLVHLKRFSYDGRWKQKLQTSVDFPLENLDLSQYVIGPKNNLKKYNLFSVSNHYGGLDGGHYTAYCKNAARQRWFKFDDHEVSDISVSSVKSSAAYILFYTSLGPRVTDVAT

Columns and labels:
Experiment in all cases: log2 fold change, soluble protein after heating vs DMSO (PISA); higher = thermal stabilisation; K562 cells, 10 uM, 30 min; active = over 0.2 and 3.5 SD of the protein, either way, in both replicates (recomputed)
[1] = compound: CC[C@@H]1C(=O)N(C)c2cnc(Nc3ccc(C(=O)NC4CCN(C)CC4)cc3OC)nc2N1C1CCCC1
How it was run: (§1)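 Soluble protein was defined as the supernatant after 21,000xg for 90 min. It came from K562 cells at 2×10^6 cells/mL given 10 μM compound for 30 min, heated in aliquots for 3 min across 48°C-58°C, pooled, and extracted in PBS with 0.5% NP-40 at 4°C, and was quantified by TMTpro 16plex LC-MS/MS with equalised channel sums. Thermal stability against control samples, from duplicates, is reported as log2 fold change.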

volasertib = compound: CC[C@@H]1C(=O)N(C)c2cnc(Nc3ccc(C(=O)N[C@H]4CC[C@H](N5CCN(CC6CC6)CC5)CC4)cc3OC)nc2N1C(C)C [volasertib]
How it was run: as §1

[2] = compound: CC[C@H](C)N1C=C(C2=C(C=C(C=C21)C3=CN=C(C=C3)N4CCNCC4)C(=O)NCC5=C(C=C(NC5=O)C)C)C
How it was run: as §1

epoxomicin = compound: CC[C@H](C)[C@@H](C(=O)N[C@@H]([C@@H](C)O)C(=O)N[C@@H](CC(C)C)C(=O)[C@]1(CO1)C)NC(=O)[C@H]([C@@H](C)CC)N(C)C(=O)C [epoxomicin]
How it was run: as §1

[3] = compound: CCn1c(C(=O)N(C2CC2)C2CC2)cc2c3c(ncn3C)c(Nc3cc(C)n(C)n3)nc21
How it was run: as §1

[4] = compound: CCn1cc(-c2ccnc3[nH]c(-c4cccc(CN(C)C)c4)cc23)c(-c2ccc(NC(=O)N(C)C)cc2)n1
How it was run: as §1

[5] = compound: CN(C)CC(=O)Nc1ccc2[nH]c(=O)c3ccccc3c2c1
How it was run: as §1

rosiglitazone = compound: CN(CCOC1=CC=C(C=C1)C[C@H]2C(=O)NC(=O)S2)C3=CC=CC=N3 (racemic) [rosiglitazone]
How it was run: as §1

[6] = compound: CN1C2=C(C3=C1C(=O)N(N=C3)CC4=CC(=CC=C4)N)SC(=C2)S(=O)C
How it was run: as §1

[7] = compound: CN1CCC(CNc2ccc3ncc(-c4cccc(OC(F)(F)F)c4)n3n2)CC1
How it was run: as §1

saracatinib = compound: CN1CCN(CCOc2cc(OC3CCOCC3)c3c(Nc4c(Cl)ccc5c4OCO5)ncnc3c2)CC1 [saracatinib]
How it was run: as §1

sotrastaurin = compound: CN1CCN(c2nc(C3=C(c4c[nH]c5ccccc45)C(=O)NC3=O)c3ccccc3n2)CC1 [sotrastaurin]
How it was run: as §1

alvocidib = compound: CN1CC[C@H](c2c(O)cc(O)c3c(=O)cc(-c4ccccc4Cl)oc23)[C@H](O)C1 [alvocidib]
How it was run: as §1

Tubastatin A = compound: CN1CCc2c(c3ccccc3n2Cc2ccc(C(=O)NO)cc2)C1 [Tubastatin A]
How it was run: as §1

[8] = compound: CNC(=O)C1=CC=CC=C1NC2=NC(=NC=C2Cl)NC3=C(C=C(C=C3)N4CCOCC4)OC
How it was run: as §1

defactinib = compound: CNC(=O)c1ccc(Nc2ncc(C(F)(F)F)c(NCc3nccnc3N(C)S(C)(=O)=O)n2)cc1 [defactinib]
How it was run: as §1

rucaparib = compound: CNCc1ccc(-c2[nH]c3cc(F)cc4c3c2CCNC4=O)cc1 [rucaparib]
How it was run: as §1

[9] = compound: CNc1nc(-c2ccc3c(N)n[nH]c3c2)cc(N2C[C@@H](C(=O)NC3CCCCC3)CC[C@H]2C)n1
How it was run: as §1

encorafenib = compound: COC(=O)N[C@@H](C)CNc1nccc(-c2cn(C(C)C)nc2-c2cc(Cl)cc(NS(C)(=O)=O)c2F)n1 [encorafenib]
How it was run: as §1

[10] = compound: COC(=O)[C@H](CCSC)NC(=O)C1=C(C=C(C=C1)NC[C@H](CS)N)C2=CC=CC=C2
How it was run: as §1

Measured: log2 fold change

UBXN4 (UniProt Q92575)
inactive: [1] -0.035 | volasertib -0.062 | [2] 0.024 | epoxomicin 0.033 | [3] 0.005 | [4] -0.07 | [5] 0.006 | rosiglitazone 0.016 | [6] -0.026 | [7] -0.068 | saracatinib -0.01 | sotrastaurin -0.01 | alvocidib 0.022 | Tubastatin A -0.013 | [8] -0.028 | defactinib -0.02 | rucaparib -0.003 | [9] -0.024 | encorafenib -0.011 | [10] 0.025

USP10 isoform 2 (UniProt Q14694)
inactive: [1] 0.05 | volasertib -0.049 | [2] 0.052 | epoxomicin -0.053 | [3] 0.02 | [4] 0.001 | [5] -0.031 | rosiglitazone -0.004 | [6] 0.033 | [7] 0.015 | saracatinib -0.022 | sotrastaurin 0.007 | alvocidib 0 | Tubastatin A 0.021 | [8] 0.012 | defactinib 0 | rucaparib 0.11 | [9] -0.01 | encorafenib 0.019 | [10] -0.021

UQCRH (UniProt P07919)
inactive: [1] 0.053 | volasertib 0.069 | [2] -0.114 | epoxomicin 0.079 | [3] -0.003 | [4] 0.002 | [5] -0.04 | rosiglitazone -0.002 | [6] -0.031 | [7] 0.075 | saracatinib -0.005 | sotrastaurin 0.009 | alvocidib -0.042 | Tubastatin A 0.014 | [8] -0.018 | defactinib 0.034 | rucaparib -0.103 | [9] -0.123 | encorafenib -0.063 | [10] 0.029

UCKL1 (UniProt Q9NWZ5)
inactive: [1] 0.036 | volasertib 0.033 | [2] 0.055 | epoxomicin -0.028 | [3] 0.016 | [4] -0.021 | [5] -0.016 | rosiglitazone 0.025 | [6] -0.045 | [7] -0.017 | saracatinib -0.01 | sotrastaurin 0 | alvocidib 0.022 | Tubastatin A -0.021 | [8] 0.084 | defactinib -0.021 | rucaparib -0.071 | [9] -0.005 | encorafenib 0.022 | [10] 0.064

USF2 (UniProt Q15853)
inactive: [1] 0.102 | volasertib 0.006 | [2] -0.09 | epoxomicin 0.088 | [3] -0.125 | [4] 0.048 | [5] -0.058 | rosiglitazone -0.005 | [6] 0.15 | [7] -0.023 | saracatinib -0.021 | sotrastaurin -0.013 | alvocidib 0.048 | Tubastatin A -0.032 | [8] 0.003 | defactinib 0.127 | rucaparib 0.056 | [9] -0.036 | encorafenib 0.029 | [10] 0.024

Two entries picked at random from the list so far, as already listed:
UBXN4 (UniProt Q92575)
inactive: [1] -0.035 | volasertib -0.062 | [2] 0.024 | epoxomicin 0.033 | [3] 0.005 | [4] -0.07 | [5] 0.006 | rosiglitazone 0.016 | [6] -0.026 | [7] -0.068 | saracatinib -0.01 | sotrastaurin -0.01 | alvocidib 0.022 | Tubastatin A -0.013 | [8] -0.028 | defactinib -0.02 | rucaparib -0.003 | [9] -0.024 | encorafenib -0.011 | [10] 0.025

UQCRH (UniProt P07919)
inactive: [1] 0.053 | volasertib 0.069 | [2] -0.114 | epoxomicin 0.079 | [3] -0.003 | [4] 0.002 | [5] -0.04 | rosiglitazone -0.002 | [6] -0.031 | [7] 0.075 | saracatinib -0.005 | sotrastaurin 0.009 | alvocidib -0.042 | Tubastatin A 0.014 | [8] -0.018 | defactinib 0.034 | rucaparib -0.103 | [9] -0.123 | encorafenib -0.063 | [10] 0.029

The listing continues.

VCL (UniProt P18206)
inactive: [1] 0.018 | volasertib 0.084 | [2] -0.037 | epoxomicin 0.02 | [3] 0.012 | [4] 0.012 | [5] -0.015 | rosiglitazone 0.001 | [6] -0.041 | [7] 0.04 | saracatinib 0.058 | sotrastaurin 0.014 | alvocidib 0.018 | Tubastatin A -0.034 | [8] -0.03 | defactinib 0.004 | rucaparib -0.076 | [9] -0.015 | encorafenib -0.002 | [10] 0.027

UCK2 (UniProt Q9BZX2)
inactive: [1] 0.043 | volasertib 0.011 | [2] -0.009 | epoxomicin 0.068 | [3] 0.004 | [4] 0.14 | [5] -0.032 | rosiglitazone 0 | [6] -0.073 | [7] -0.044 | saracatinib 0.076 | sotrastaurin 0.021 | alvocidib -0.038 | Tubastatin A 0.013 | [8] -0.076 | defactinib -0.024 | rucaparib -0.038 | [9] -0.013 | encorafenib -0.001 | [10] 0.005

UBXN1 (UniProt Q04323)
inactive: [1] 0.002 | volasertib 0.008 | [2] -0.015 | epoxomicin 0.1 | [3] 0.008 | [4] -0.016 | [5] 0 | rosiglitazone 0.014 | [6] -0.024 | [7] -0.157 | saracatinib 0.007 | sotrastaurin -0.075 | alvocidib -0.063 | Tubastatin A 0.045 | [8] -0.013 | defactinib -0.041 | rucaparib 0.024 | [9] 0 | encorafenib -0.019 | [10] 0.005

UCHL5 (UniProt Q9Y5K5)
inactive: [1] -0.113 | [2] 0.074 | epoxomicin 0.116 | [4] -0.028 | [5] 0.04 | [6] -0.003 | [7] -0.099 | saracatinib -0.044 | sotrastaurin -0.057 | Tubastatin A 0.148 | [8] 0.013 | defactinib -0.107 | rucaparib 0.074 | [9] -0.001 | encorafenib 0.091 | [10] -0.028
active: volasertib -0.295

UPRT (UniProt Q96BW1)
inactive: [1] 0.019 | volasertib 0.056 | [2] -0.003 | epoxomicin 0.058 | [3] 0.002 | [4] 0.089 | [5] -0.053 | rosiglitazone 0.022 | [6] 0.034 | [7] -0.067 | saracatinib 0.015 | sotrastaurin 0.021 | alvocidib 0.023 | [8] -0.015 | defactinib -0.053 | rucaparib -0.055 | [9] -0.001 | encorafenib -0.041 | [10] -0.065

UGT8 (UniProt Q16880)
inactive: [1] 0.126 | volasertib 0.017 | [2] 0.051 | epoxomicin 0.032 | [3] 0.343 | [4] -0.092 | [5] -0.109 | rosiglitazone -0.05 | [6] -0.01 | [7] 0.219 | saracatinib 0.017 | sotrastaurin 0.103 | alvocidib 0.026 | Tubastatin A 0.065 | [8] 0.183 | defactinib 0.462 | rucaparib 0.078 | [9] -0.008 | encorafenib 0.07 | [10] -0.094

UTP15 (UniProt Q8TED0)
inactive: [1] 0.194 | volasertib 0.328 | [2] -0.058 | epoxomicin -0.328 | [3] 0.023 | [4] 0.195 | [5] -0.164 | rosiglitazone -0.096 | [6] 0.21 | [7] 0.354 | saracatinib -0.097 | sotrastaurin 0.008 | alvocidib 0.386 | Tubastatin A 0.046 | [8] 0.038 | defactinib 0.389 | rucaparib 0.395 | [9] 0.067 | encorafenib 0.142 | [10] -0.03

UIMC1 (UniProt Q96RL1)
inactive: [1] 0.124 | volasertib 0.103 | [2] -0.027 | epoxomicin -0.079 | [3] 0.002 | [4] -0.124 | [5] -0.009 | rosiglitazone -0.063 | [6] 0.115 | [7] 0.064 | saracatinib 0 | sotrastaurin 0.054 | alvocidib 0.193 | Tubastatin A 0.029 | [8] -0.016 | defactinib 0.119 | rucaparib 0.192 | [9] 0.041 | encorafenib 0.019 | [10] 0.034

USP8 (UniProt P40818)
inactive: [1] -0.042 | volasertib -0.298 | [2] -0.072 | epoxomicin -0.012 | [3] -0.09 | [4] -0.024 | [5] 0.017 | rosiglitazone -0.012 | [6] 0.041 | [7] -0.188 | saracatinib -0.129 | sotrastaurin -0.176 | alvocidib -0.009 | Tubastatin A 0.035 | [8] 0.042 | defactinib -0.093 | rucaparib 0.091 | [9] 0.042 | encorafenib 0.118 | [10] -0.133

VAPB (UniProt O95292)
inactive: [1] 0.006 | volasertib 0.046 | [2] 0.035 | epoxomicin 0.069 | [3] 0.009 | [4] -0.001 | [5] -0.001 | rosiglitazone 0 | [6] -0.042 | [7] 0.078 | saracatinib 0.011 | sotrastaurin 0.021 | alvocidib -0.042 | Tubastatin A -0.031 | [8] 0.008 | defactinib -0.022 | rucaparib -0.047 | [9] -0.003 | encorafenib -0.008 | [10] 0.016

UXT isoform 2 (UniProt Q9UBK9)
inactive: [1] 0.082 | volasertib 0.128 | [2] 0.05 | epoxomicin -0.038 | [4] -0.248 | [5] 0.015 | [6] -0.052 | [7] -0.126 | saracatinib 0.031 | sotrastaurin -0.056 | Tubastatin A 0.077 | [8] -0.191 | defactinib 0 | rucaparib 0.049 | [9] -0.027 | encorafenib -0.018 | [10] -0.078
